# The list shows a part of the results, in another mix than the full data.
# Sequences of proteins named here, by UniProt entry; tags and fusion partners are left off. A change or cut given only in a name is not applied to a line headed by its entry.
# UniProt P10599: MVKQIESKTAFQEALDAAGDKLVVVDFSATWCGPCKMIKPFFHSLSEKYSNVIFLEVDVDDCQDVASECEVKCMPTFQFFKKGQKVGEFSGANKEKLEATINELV
# UniProt P08621, whole entry: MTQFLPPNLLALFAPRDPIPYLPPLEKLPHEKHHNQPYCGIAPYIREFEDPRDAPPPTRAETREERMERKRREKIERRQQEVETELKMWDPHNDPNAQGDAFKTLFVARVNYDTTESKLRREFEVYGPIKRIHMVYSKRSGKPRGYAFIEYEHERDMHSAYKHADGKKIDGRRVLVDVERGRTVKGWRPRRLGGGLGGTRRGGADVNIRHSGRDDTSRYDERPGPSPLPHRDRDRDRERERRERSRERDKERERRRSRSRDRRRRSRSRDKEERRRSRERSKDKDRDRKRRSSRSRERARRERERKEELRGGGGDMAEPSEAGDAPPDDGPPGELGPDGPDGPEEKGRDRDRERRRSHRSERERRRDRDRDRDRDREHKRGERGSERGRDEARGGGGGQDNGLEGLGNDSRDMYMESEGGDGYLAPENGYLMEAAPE
# UniProt P13797: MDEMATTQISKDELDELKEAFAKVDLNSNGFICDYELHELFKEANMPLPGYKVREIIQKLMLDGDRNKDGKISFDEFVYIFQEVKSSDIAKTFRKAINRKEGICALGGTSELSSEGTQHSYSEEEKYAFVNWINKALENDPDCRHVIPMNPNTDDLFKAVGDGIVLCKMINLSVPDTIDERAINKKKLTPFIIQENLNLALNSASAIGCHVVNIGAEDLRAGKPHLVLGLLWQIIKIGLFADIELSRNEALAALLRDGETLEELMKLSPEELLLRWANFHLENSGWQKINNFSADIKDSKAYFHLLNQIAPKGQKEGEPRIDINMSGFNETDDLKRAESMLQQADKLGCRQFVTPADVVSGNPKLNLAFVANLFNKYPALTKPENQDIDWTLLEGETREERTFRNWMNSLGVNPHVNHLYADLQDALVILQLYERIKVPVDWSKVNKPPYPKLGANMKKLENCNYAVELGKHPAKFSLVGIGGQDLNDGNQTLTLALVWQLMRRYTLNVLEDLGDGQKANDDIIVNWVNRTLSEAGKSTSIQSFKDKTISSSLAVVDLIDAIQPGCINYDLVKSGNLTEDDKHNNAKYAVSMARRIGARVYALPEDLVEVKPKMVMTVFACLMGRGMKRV
# UniProt P09622, whole entry, looked up: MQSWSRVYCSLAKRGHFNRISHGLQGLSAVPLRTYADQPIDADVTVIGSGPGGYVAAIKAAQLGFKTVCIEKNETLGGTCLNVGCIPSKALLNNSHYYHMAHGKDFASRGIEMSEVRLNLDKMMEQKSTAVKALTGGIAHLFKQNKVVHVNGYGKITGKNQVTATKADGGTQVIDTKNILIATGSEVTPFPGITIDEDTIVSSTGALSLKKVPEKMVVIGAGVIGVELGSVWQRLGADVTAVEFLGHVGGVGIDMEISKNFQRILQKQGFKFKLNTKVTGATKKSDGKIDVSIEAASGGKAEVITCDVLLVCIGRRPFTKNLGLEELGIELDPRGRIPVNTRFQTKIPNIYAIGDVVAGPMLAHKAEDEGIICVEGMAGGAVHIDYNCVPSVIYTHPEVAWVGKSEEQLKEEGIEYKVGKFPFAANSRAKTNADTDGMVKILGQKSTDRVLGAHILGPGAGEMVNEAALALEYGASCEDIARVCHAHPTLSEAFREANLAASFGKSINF
# UniProt P08240: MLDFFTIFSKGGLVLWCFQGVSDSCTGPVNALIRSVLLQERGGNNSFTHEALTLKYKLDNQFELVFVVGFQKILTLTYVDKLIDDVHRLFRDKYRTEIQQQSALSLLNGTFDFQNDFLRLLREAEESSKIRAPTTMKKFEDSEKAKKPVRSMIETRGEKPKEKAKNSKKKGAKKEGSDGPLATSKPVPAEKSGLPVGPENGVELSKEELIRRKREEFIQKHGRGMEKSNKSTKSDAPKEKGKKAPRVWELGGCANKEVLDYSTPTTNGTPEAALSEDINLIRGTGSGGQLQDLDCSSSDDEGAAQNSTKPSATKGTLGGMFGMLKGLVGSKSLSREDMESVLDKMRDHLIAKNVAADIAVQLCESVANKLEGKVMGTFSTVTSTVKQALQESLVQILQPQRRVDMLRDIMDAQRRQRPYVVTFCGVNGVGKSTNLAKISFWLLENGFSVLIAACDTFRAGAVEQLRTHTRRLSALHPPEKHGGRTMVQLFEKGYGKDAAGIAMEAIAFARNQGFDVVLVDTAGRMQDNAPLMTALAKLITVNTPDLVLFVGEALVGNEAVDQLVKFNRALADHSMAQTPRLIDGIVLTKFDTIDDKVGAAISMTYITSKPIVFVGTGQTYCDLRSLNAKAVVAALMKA
# UniProt P12955: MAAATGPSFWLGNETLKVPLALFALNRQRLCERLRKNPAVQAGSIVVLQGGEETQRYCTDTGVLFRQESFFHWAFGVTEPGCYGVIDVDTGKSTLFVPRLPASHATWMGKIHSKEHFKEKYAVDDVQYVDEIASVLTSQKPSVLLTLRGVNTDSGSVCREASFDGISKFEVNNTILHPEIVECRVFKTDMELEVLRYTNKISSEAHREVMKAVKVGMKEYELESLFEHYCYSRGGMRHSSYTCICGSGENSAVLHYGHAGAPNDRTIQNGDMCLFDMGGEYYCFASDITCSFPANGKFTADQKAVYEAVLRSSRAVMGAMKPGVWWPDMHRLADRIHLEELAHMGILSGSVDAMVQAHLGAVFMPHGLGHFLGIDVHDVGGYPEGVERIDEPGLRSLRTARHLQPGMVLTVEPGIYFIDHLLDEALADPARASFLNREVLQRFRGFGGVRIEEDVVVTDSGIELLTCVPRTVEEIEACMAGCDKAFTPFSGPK
# UniProt P17844: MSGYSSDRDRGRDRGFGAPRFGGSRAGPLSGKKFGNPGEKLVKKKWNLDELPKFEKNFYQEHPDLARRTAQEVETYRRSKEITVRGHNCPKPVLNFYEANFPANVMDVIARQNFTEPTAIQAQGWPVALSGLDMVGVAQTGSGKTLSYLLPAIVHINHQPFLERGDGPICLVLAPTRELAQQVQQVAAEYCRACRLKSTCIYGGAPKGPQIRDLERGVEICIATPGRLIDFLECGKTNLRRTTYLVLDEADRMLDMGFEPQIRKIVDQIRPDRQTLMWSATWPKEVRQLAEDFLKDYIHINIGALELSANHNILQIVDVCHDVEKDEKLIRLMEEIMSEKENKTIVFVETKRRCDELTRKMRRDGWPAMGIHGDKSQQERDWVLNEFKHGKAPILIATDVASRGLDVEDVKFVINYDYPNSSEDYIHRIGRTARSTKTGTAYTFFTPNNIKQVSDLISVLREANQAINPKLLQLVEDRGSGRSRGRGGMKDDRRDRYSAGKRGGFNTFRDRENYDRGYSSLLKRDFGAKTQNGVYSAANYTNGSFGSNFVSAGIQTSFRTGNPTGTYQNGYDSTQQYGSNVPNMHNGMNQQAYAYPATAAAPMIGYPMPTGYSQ
# UniProt P11274: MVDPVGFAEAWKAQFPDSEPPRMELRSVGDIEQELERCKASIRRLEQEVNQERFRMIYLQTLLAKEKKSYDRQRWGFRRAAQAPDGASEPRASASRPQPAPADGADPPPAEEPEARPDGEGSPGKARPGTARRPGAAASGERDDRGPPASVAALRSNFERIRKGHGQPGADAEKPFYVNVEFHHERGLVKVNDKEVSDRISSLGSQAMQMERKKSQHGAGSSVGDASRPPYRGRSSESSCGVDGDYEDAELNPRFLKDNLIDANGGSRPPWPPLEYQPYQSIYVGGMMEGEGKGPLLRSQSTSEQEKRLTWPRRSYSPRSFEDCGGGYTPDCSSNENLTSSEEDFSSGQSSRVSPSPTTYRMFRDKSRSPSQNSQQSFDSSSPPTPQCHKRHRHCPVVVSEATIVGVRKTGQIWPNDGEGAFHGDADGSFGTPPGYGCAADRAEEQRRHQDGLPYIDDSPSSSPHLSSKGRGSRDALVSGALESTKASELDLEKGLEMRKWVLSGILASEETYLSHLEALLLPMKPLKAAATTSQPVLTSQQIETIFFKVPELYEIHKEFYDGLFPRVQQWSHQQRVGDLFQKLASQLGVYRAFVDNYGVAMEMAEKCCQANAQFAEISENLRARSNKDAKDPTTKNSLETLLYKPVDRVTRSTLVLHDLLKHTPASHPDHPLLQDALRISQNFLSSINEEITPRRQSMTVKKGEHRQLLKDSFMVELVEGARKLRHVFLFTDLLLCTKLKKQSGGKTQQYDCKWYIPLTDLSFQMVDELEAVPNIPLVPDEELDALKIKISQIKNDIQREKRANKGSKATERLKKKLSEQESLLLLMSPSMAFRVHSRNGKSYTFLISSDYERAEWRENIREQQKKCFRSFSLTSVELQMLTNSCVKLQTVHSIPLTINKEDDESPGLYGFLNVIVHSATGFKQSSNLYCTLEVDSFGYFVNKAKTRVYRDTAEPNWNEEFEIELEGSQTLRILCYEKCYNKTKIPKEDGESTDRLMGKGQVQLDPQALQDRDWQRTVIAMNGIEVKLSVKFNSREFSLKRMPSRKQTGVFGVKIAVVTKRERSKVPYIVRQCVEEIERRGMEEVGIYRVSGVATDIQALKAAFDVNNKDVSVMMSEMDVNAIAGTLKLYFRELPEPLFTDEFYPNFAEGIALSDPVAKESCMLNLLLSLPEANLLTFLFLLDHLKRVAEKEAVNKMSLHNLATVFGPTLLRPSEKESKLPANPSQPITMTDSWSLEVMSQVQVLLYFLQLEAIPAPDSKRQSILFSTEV
# UniProt P14923: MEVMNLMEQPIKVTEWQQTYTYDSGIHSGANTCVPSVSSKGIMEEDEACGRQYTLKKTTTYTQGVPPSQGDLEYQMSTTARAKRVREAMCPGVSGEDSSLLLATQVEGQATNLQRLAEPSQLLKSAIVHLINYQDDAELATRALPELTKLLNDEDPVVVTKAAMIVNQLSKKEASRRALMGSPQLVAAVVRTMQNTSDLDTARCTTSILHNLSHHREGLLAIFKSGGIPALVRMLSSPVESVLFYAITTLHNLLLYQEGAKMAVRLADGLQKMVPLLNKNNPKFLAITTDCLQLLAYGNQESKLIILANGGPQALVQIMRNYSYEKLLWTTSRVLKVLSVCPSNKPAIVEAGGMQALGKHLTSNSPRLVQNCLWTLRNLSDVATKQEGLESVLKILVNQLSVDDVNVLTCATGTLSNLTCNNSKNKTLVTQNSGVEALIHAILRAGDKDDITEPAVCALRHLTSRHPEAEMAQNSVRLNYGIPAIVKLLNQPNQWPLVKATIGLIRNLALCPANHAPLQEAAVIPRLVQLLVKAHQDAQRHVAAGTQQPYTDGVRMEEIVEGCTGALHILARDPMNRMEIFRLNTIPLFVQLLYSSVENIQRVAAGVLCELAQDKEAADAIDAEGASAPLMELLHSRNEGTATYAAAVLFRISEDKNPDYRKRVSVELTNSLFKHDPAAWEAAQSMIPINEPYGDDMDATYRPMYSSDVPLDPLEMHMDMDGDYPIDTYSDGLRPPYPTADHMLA
# UniProt P07954: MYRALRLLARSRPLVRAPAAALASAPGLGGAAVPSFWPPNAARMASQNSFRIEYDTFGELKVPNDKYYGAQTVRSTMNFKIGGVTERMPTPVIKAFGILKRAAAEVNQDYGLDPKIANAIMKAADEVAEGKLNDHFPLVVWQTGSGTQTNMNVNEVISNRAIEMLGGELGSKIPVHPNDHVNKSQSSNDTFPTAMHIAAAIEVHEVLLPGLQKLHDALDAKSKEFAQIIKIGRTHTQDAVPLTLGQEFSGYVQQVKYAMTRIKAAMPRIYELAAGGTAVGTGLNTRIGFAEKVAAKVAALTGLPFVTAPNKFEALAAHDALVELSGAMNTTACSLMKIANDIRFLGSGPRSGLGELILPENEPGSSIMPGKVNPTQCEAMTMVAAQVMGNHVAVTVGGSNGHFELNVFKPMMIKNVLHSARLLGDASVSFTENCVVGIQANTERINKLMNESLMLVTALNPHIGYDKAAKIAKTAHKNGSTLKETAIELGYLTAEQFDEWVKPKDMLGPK
# UniProt P08670, whole entry: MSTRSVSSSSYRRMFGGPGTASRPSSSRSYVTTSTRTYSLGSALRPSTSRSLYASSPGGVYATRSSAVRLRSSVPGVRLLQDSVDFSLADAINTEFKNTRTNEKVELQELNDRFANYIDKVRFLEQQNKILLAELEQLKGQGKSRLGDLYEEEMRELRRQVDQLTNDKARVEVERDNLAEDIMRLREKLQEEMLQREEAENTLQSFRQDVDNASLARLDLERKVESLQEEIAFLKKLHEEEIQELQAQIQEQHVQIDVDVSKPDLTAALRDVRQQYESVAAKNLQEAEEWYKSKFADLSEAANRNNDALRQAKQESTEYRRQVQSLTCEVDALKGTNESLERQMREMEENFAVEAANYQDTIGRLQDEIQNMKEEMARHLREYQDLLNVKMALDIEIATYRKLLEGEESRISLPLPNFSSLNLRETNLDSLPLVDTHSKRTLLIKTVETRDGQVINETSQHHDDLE
# Compound: COC(=O)C#Cc1ccccc1 [methyl 3-phenylpropiolate]
# Assay: log2 ratio of iodoacetamide-alkyne labeling of the cysteine site, DMSO over compound (competition); higher = stronger covalent engagement of the cysteine by the compound, active = 1 or more
# Settings: 500 µM; treatment time 1 h; system: HEK293T cell lysate
# Procedure, shortened: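 After 1 h at ambient temperature with vehicle or electrophile (500 µM), HEK293T lysate (2 mg/mL) was labelled for 1 h with iodoacetamide alkyne and clicked to sCIP-TMT reagents. Pooled samples were trypsin-digested overnight at 37 °C, streptavidin-enriched, acid-eluted and analysed by Orbitrap Eclipse LC-MS/MS with FAIMS, then quantified in FragPipe over three replicates with duplicate channels. A cysteine's log2 competition ratio is its mean control-channel over mean compound-channel reporter intensity. Cysteines quantified in only one replicate were not included.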
row,Target,log2 ratio of iodoacetamide-alkyne labeling
1,TXN C73 (UniProt P10599),inactive: 0.114
2,PARP1 C908 (UniProt P09874),inactive: -0.0809
3,TPR C75 (UniProt P12270),inactive: 0.197
4,PRKAR1A C362 (UniProt P10644),inactive: 0.0246
5,U2AF1L5 C18 (UniProt P0DN76),inactive: 0.165
6,SNRNP70 C39 (UniProt P08621),inactive: 0.136
7,PLS3 C463 (UniProt P13797),inactive: 0.42
8,EPRS C660 (UniProt P07814),inactive: 0.394
9,CAPN2 C405 (UniProt P17655),inactive: -0.0821
10,G6PD C385 (UniProt P11413),inactive: 0.327
11,U2AF1L5 C67 (UniProt P0DN76),inactive: 0.366
12,UniProt P0DMV8_C17,inactive: 0.404
13,HNRNPA1 C43 (UniProt P09651),inactive: -0.0112
14,DLD C477 (UniProt P09622),inactive: 0.379
15,TPR C1068 (UniProt P12270),inactive: 0.136
16,UniProt P08240_C363,inactive: -0.0254
17,DSP C1957 (UniProt P15924),inactive: 0.655
18,CDK4 C78 (UniProt P11802),inactive: 0.149
19,CLTB C199 (UniProt P09497),inactive: 0.549

# Retrieved one by one from above:
row,Target,log2 ratio of iodoacetamide-alkyne labeling
13,HNRNPA1 C43 (UniProt P09651),inactive: -0.0112
18,CDK4 C78 (UniProt P11802),inactive: 0.149

# (continued)

row,Target,log2 ratio of iodoacetamide-alkyne labeling
1,EEF2 C136 (UniProt P13639),inactive: 0.0351
2,PEPD C467 (UniProt P12955),inactive: 0.341
3,UniProt P14618_C358,inactive: -0.0609
4,HSP90AB1 C366 (UniProt P08238),inactive: 0.0861
5,PLS3 C566 (UniProt P13797),inactive: 0.132
6,LAMB1 C1785 (UniProt P07942),inactive: 0.297
7,PRKAR2A C128 (UniProt P13861),inactive: 0.00919
8,DDX5 C191 (UniProt P17844),inactive: 0.0899
9,BCR C395 (UniProt P11274),active: 1.17
10,JUP C90 (UniProt P14923),inactive: 0.305
11,Q95604 C188 (UniProt P10321),inactive: 0.298
12,HSP90AB1 C590 (UniProt P08238),inactive: 0.067
13,FH C434 (UniProt P07954),inactive: 0.395
14,NR2C1 C265 (UniProt P13056),inactive: 0.201
15,RNH1 C409 (UniProt P13489),inactive: 0.0147
16,RPS2 C229 (UniProt P15880),inactive: 0.868
17,VIM C328 (UniProt P08670),inactive: 0.179
18,HNRNPL C472 (UniProt P14866),inactive: -0.0842
